Our source for the binding values is paper PMC3960220, “1,2-β-Oligoglucan Phosphorylase from Listeria innocua” (PLoS ONE, 2014).

These are yes or no findings as the source states them, for the method shown. Sequences can lack the tags named with a protein.

This test deals with recombinant Lin1839 protein (1,2-β-oligoglucan phosphorylase) from Listeria innocua (Listeria innocua Clip 11262) (UniProt Q92AT0). The experiment in a line: SEC; Superdex 200 (Hiload 16/60), 50 mM MOPS-NaOH (pH 7.0) containing 150 mM NaCl; 1 ml of 2.0 mg/ml Lin1839r loaded; calibrated with standard proteins (44-669 kDa); both purified.

B1: recombinant Lin1839 protein (1,2-β-oligoglucan phosphorylase) from Listeria innocua (enzyme, UniProt Q92AT0 1-1086)
chain: MTMLKEIKKADLSAAFYPSGELAWLKLKDIMLNQVIQNPLENRLSQIYVRAHVGDKIEIYPLLSRDAEVGFNENGVEYRGVVGPFRYSVQMHFHTRGWFYDVTVDGDLEFDLVYLQDLGLAEQAAVRTNEAYMSQYIDYHVTEGATGFTVQARQNQPQNERFPAVQIGALTKIVGYATDGFDIYGTNYKLTSELANLKEKSLPSRVYQYEFAQISLQTELFTNHGETIFYGYATENQPKASGAPFENLAELKSNISEQPYQPSTKAILNKHIGTPITGETISDSWLQENFPDRIQEEQQNGALLSFFTPNYAHVVMREKEAELERPHGSILLDKVDVLNPEATLSATTYMYGAFLSQLVAGNTNMNKWNSHARNPLNILQTSGLRIYIELDSELRLLGVPSVWETSTNYSTWYYQWNGDLITVQTTLTADSKEAFVTVHSEKGHSYKLVLTNQVTMGTNEYDTTVKKEIKDGIVTYFPAEDSPILETYPALQFRVDGTYNELTDERYFAKDYVGTAGLDVFVFEPSDKATFHVQAKLSDEFSKPTEDLEANNKVIRASYDELTAQFHLNHQSTTAEKLNLTVYWYAHQMLVHYASPHGLEQYSGAAWGTRDVSQGPFEFFLATGNKAVLRKLVLTIFSHQYQDTGDWPQWFMFDKYTSIQQEESHGDVIVWPLKIIGDYLEMSGDAGILEEAIPFVDRESKTFTKEQGTLLEHIELAVKTIEARFMKGTALSNYGDGDWDDTLQPANAQLKKNMVSSWTVALTYQTFKRLAAFLPVGEKYETLAKNVQADFAKYMTNDTDVIPGFLYLEEGKAPVWMIHPEDKETNIKYRLIPLTRSVISELVDKKQASRNFEIIGEHLLHPDGVRLMSEPAHYAGGVSTHFKRAEQAANFGREVGLQYVHAHIRYIEALAKIGDKSAWHMLDVINPINIKEVVPNAALRQSNTYFSSSDAAFLDRYQAQNEFGRVKEGSIPVKGGWRIYSSGPGIYLHQLISSVLGIRQTEDALIFDPILPEELDGLECHIELDNYPLDLTFESADEGSIVVNGEKQPVENGANLYRTGALILPKKNLTTKCSQITIKFQKNNRL
Take B1: the binding result is listed as “no binding (tested: 2.0 mg/ml)”.
